The list shows a part of the results.
B1: il10ra_site1_sap_21_mot_HHH_b2_07873_af2_000000172_0001_1_19_H_._87bccf00243209e7f763f401d09c0631_0001_0002_0000400012_0000002_0_0001 (protein)
chain: SSSSTALHEVWRLSREFIELAQEGDEEKAEEVLKEIEELARESNSPLARYILEVLERALKSSSSS
B2: il10ra_site1_normal_mot_HHH_b1_03900_000000129_0001_1_16_H_._HHH_b2_01195_0001_0000400015_0000002_0_af2pred_0001 (protein)
chain: SSSSSSDEEREEAEELHREVEEDPRHSYKLLKELARLALKSRNPEIIRLALELAEELKRSSSSSS
B3: il10ra_site1_sap_10_mot_HHH_b2_07521_000000141_0001_20_37_H_._HHH_b1_07784_0001_0000100002_0000001_0_0001_af2pred_0001 (protein)
chain: SSSSSSEIERVMELLERVAELLHKGNPEEAKEVLEEAKEIAEELGNLALRISIEFLEKIASSSSS
B4: il10ra_site1_sap_19_mot_HHH_b2_02497_000000141_0001_1_20_H_._HHH_b2_03821_0001_0000200019_0000001_0_0001_af2pred_0001 (protein)
chain: SSSSDDDERRLRLSLKFLKFLIEEGSERSAEILIRAIEDLAKKAKDEEVQKLVEELREELESSSS
B5: il10ra_site1_normal_mot_b26a303360aa2756ef5b79665ce52f45_0001_000000179_0001_1_11_H_._HHH_b2_02270_0001_0000100005_0000001_0_af2pred_0001 (protein)
chain: SSSSSSSEREEAFRILREAAHIDDEEEARELLEEAIELAEKANNPVLRRSAEFALRDKSSSSSSS
B6: il10ra_site1_sap_24_mot_HHH_b2_05323_000000159_0001_1_18_H_._HHH_b2_02704_af2_0001_0000200011_0000002_0_0001 (protein)
chain: SSSSTEELYRKVKEIIEEANELARRGNPEEVERILRELLEELEELNNEALLWAVRYALKINSSSS
B7: il10ra_site1_sap_12_mot_ems_3hM_3349_000000016_0001_25_42_H_._b4be136d7f8a4bb058aae31a77d31857_0001_0001_0000300014_0000001_0_0001_af2pred_dldesign_0_af2pred (protein)
chain: SSSSDLDKRAWDLSVELYKLGREEELLRLAQLRTQYHLTGDPRLREELEALLDEIEAELKSSSSS
B8: il10ra_site1_normal_mot_HHH_b2_06090_af2_000000001_0001_1_19_H_._HHH_b1_04907_af2_0001_0000300025_0000001_0 (protein)
chain: SSSSDERQRVLRLLVEILRLILRGDHEEARELLEEVERLAEELGDEALRKAVEIYEEALKSSSSS
B9: il10ra_site1_sap_23_mot_HHH_b1_08411_af2_000000053_0001_1_20_H_._HHH_b1_02517_0001_0000100005_0000002_0_0001 (protein)
chain: SSSSSDADEVFRRVEELLRRVMHIEDEEEAEKLLEEAKELAEEAGNQLLKWAIEYVAKVHSSSSS
B10: il10ra_site1_sap_20_mot_HHH_b1_03230_000000248_0001_1_19_H_._HHH_b2_06429_af2_0001_0000500013_0000001_0_0001 (protein)
chain: SSSSDEEEELVEAAIRLAKQLLEWGNPEAARLIIEAAEMLVEELGNEELQEKLEEVREELNSSSS
B11: il10ra_site1_sap_24_mot_HHH_b1_03262_af2_000000181_0001_43_57_H_._HHH_b2_01829_0001_0000300024_0000001_0_0001 (protein)
chain: SSSSSSEEEEEVEELLEEAKQIPDPRERIEVLLRAVRIAIQGQNPELLRLVWRVIKELGKSSSSS
B12: il10ra_site1_normal_mot_HHH_b1_06912_af2_000000235_0001_1_15_H_._HHH_b2_00723_af2_0001_0000300016_0000001_0 (protein)
chain: SSSSSEADRVYKLIRRVLELLYNGDDEEAEELLREAEELVEEANNFVFKFALRVLRERLEESSSS
B13: il10ra_site1_sap_27_mot_9c3e5e2d2b9ffb70dc788f52fbfab6d5_0001_1_000000198_0001_1_14_H_._05ca327611f5605f0dd8494b449afcbf_0001_1_af2_0001_0000500019_0000003_0_00 … (protein)
chain: SSSSSEELYRLSRKAMELLREGDKEEAREVVEKAEELAEEENSPVFLMNIRFVLEDIERTSSSSS
B14: il10ra_site1_sap_29_mot_86ab9fa9a2f9995d0bea9dc24d8c997f_0001_1_af2_000000014_0001_16_33_H_._66c2fca85847babee3b8944584cfd08f_0001_1_0001_0000600028_0000001_0_0 … (protein)
chain: SSSSSHAEEIVRITLEMAEEAKEEGDEQLFRALLWFARIAAEERNDPEAERLVEEFEEEFSSSSS
B15: il10ra_site1_sap_25_mot_HHH_b1_01513_af2_000000021_0001_1_16_H_._HHH_b2_07812_af2_0001_0000500006_0000001_0_0001_af2pred_0001 (protein)
chain: SSSSDEEAREYHREIQELMEKGNPEKAAKLLLELSKLAMRKGDEEMVRLVHELVRLLLELNSSSS
B16: il10ra_site1_normal_mot_HHH_b2_06497_000000202_0001_1_20_H_._HHH_b2_00092_af2_0001_0000800020_0000001_0_af2pred_0001 (protein)
chain: SSSSSDRARLSTRVYELLRKALRIDDEEEVEELLKEAEELARELGNRILEHAIEAAKRALSSSSS
B17: il10ra_site1_sap_23_mot_HHH_b1_03754_af2_000000016_0001_40_56_H_._HHH_b2_04696_0001_0000300035_0000001_0_0001 (protein)
chain: SSSSSEEIQQVLRLSLEAFRLALRGNPEEARKLLEEAEELAEEANDPRMLRVIRDLLRALSSSSS
B18: il10ra_site1_normal_mot_HHH_b1_05357_000000034_0001_23_39_H_._HHH_b2_02364_0002_0000100005_0000001_0 (protein)
chain: SSSSSDEEDREEVERLLEEAKHIEDRQRVSHLMIQAYAVAHNANDPELEELVREVAKELVSSSSS
B19: il10ra_site1_sap_13_mot_HHH_b2_02116_af2_000000165_0001_41_55_H_._HHH_b1_01304_0001_0000300021_0000001_0_0001 (protein)
chain: SSSSDREELLEEAWRLLREALELAQTDPEEAREVAEEAEEIAKEANSWAILISIRFFLKDLSSSS
B20: il10ra_site1_sap_12_mot_HHH_b1_05357_000000034_0001_23_39_H_._HHH_b1_01533_af2_0001_0000200008_0000002_0_0001_af2pred_dldesign_0_af2pred (protein)
chain: SSSSSELEAFLERKLAALEQLAAMGEKEEFEKLANYIKAVAKALNNPEVIARVDEIEAKLKSSSS
B21: il10ra_site1_normal_mot_HHH_b1_05021_af2_000000076_0001_42_56_H_._HHH_b2_06583_af2_0001_0000600010_0000001_0_af2pred_dldesign_0_af2pred (protein)
chain: SSSSSSAELTEKAIELLREASELEDKEKRKELLAKAKELAEKAKNELLLEAIAYLESQLSSSSSS
B22: il10ra_site1_sap_31_mot_HHH_b1_05860_000000142_0001_1_19_H_._HHH_b1_04567_af2_0001_0000500066_0000002_0_0001_af2pred_0001 (protein)
chain: NLIERVRELAKKADDPKLLKLLLLLVHAIFRGDEELVERVLELLEQAREEGDPRYLEEAEELLRK
B23: il10ra_site1_normal_mot_HHH_b1_02080_af2_000000254_0001_23_39_H_._HHH_b1_03859_0001_0000500007_0000001_0 (protein)
chain: SSSSDQEILEEASRLYLRASEAIEKGDEELLEKLLEELEELAEELNDPRIRLTLQFLKAIGSSSS
B24: il10ra_site1_normal_mot_HHH_b1_01886_000000262_0001_1_18_H_._HHH_b2_02763_0001_0000400033_0000001_1 (protein)
chain: SSSSTLEWSVEFVLRAAEILAKRGDPEHAKELLRRLLEHLEEAGNEELLEEVEELLRELGSSSSS
B25: il10ra_site1_normal_mot_HHH_b2_06786_000000018_0001_41_57_H_._HHH_b1_07352_af2_0001_0000200014_0000001_0 (protein)
chain: SSSSNDVARIVAEAVRLAFRLSDEETLQELWKLFKEYIKEGDERYKERLEELLEELEELLSSSSS
B26: il10ra_site1_normal_mot_HHH_b2_07579_000000275_0001_1_19_H_._HHH_b1_07685_af2_0001_0000300033_0000001_0 (protein)
chain: SSSSSEEVMELIREAAELLRNGNPEKAREVAEEAERIAEELGNFVLRFSVRHLLEDIENQSSSSS
B27: il10ra_site1_sap_20_mot_HHH_b2_04275_000000272_0001_20_36_H_._HHH_b1_03183_0001_0000200025_0000001_0_0001 (protein)
chain: SSSSDIEEEVEELLEEARHIPDEHEVAQLLFEAMRLAWENNDPELVMKVVQFAAEMLNERSSSSS
B28: il10ra_site1_sap_23_mot_HHH_b2_02463_af2_000000222_0001_1_19_H_._HHH_b1_06062_af2_0001_0000400023_0000001_0_0001 (protein)
chain: SSSSDEEYIRLALKFAKWLLEAGDPEAAKHILRAAADVARKAGNEEALEELEKLLKEVEEKSSSS
B29: il10ra_site1_sap_29_mot_HHH_b1_00992_000000182_0001_23_40_H_._ad6cd7d0a18b703aa9959b16ef12cf47_0001_1_0001_0000300017_0000001_0_0001 (protein)
chain: SSSSDEAYRLAEEFIEEILRLLHEGDREEAERLAEELLELLRELGDMNVTRNVEHLLKLVRSSSS
B30: il10ra_site1_normal_mot_HHH_b1_04015_af2_000000074_0001_1_17_H_._HHH_b1_03391_0001_0000200010_0000001_0 (protein)
chain: SSSSSEYEFAKERIERAAQLLQNGNPEEAKRVLEELEEFLEERNNEVTLWSVRHLLRLIEESSSS
B31: il10ra_site1_sap_19_mot_HHH_b1_06914_000000280_0001_1_18_H_._HHH_b2_00575_af2_0001_0000400020_0000001_0_0001_af2pred_0001 (protein)
chain: SSSSSRKAKIALEAAELAIRYALEQGDEHLAEAVFRVFAQLLRALGDEEAEEQLEELFERLSSSS
B32: il10ra_site1_sap_19_mot_HHH_b2_02463_af2_000000222_0001_1_19_H_._HHH_b1_00181_0001_0000200021_0000002_0_0001 (protein)
chain: SSSSSQMEELLEAARKFLEQALRLGNEEIARSAAMALRVAAEIAGDEEAKEYVEEVEKRLSSSSS
B33: il10ra_site1_sap_27_mot_HHH_b2_02053_af2_000000006_0001_3_19_H_._HHH_b1_06258_0001_0000700052_0000001_0_0001 (protein)
chain: SSSSSSEEEREVEELLEEAEQIPDPKERSEVLAEALKVAYEGQNPELVRLVWEVVEKLFSSSSSS
B34: il10ra_site1_normal_mot_HHH_b1_00814_af2_000000078_0001_43_57_H_._HHH_b2_04659_0001_0000100001_0000001_0_af2pred_0001 (protein)
chain: SSSSSSDIEEEIEELLEEAKHVDPHERLRLLREAFELALELGDPELERLVVEVAARLISSSSSSS
B35: il10ra_site1_sap_7_mot_HHH_b1_02648_000000074_0001_1_19_H_._HHH_b1_06690_0001_0000300022_0000001_0_0001 (protein)
chain: SSSSSETQRIAELIREAMELAREGDEEKVEEVLEEAERLAEENNNRLFLIQVRFLAKLENSSSSS
B36: il10ra_site1_sap_15_mot_HHH_b2_04013_af2_000000040_0001_22_39_H_._HHH_b2_06082_0001_0000200012_0000002_0_0001 (protein)
chain: SSSSSSDIEEEVEKLLEEAKRIDDPARRSHVLIQAYALADQNNNEELKELVREVLQELVSSSSSS
B37: il10ra_site1_sap_19_mot_HHH_b2_00033_000000036_0001_41_54_H_._HHH_b2_01402_0001_0000100011_0000002_0_0001_af2pred_0001 (protein)
chain: SSSSDERARRAAELSIKFAKHLAEAGDEEAARFILEAAAEILKKNNDEELLKELEELLEELSSSS

Biological target: il10ra, Q13651
Assay: yeast display titration

Apparent Kd, inactive:
B1 no binding seen
B2 no binding seen
B3 no binding seen
B4 no binding seen
B5 no binding seen
B6 no binding seen
B7 no binding seen
B8 no binding seen
B9 no binding seen
B10 no binding seen
B11 no binding seen
B12 no binding seen
B13 no binding seen
B14 no binding seen
B15 no binding seen
B16 no binding seen
B17 no binding seen
B18 no binding seen
B19 no binding seen
B20 no binding seen
B21 no binding seen
B22 no binding seen
B23 no binding seen
B24 no binding seen
B25 no binding seen
B26 no binding seen
B27 no binding seen
B28 no binding seen
B29 no binding seen
B30 no binding seen
B31 no binding seen
B32 no binding seen
B33 no binding seen
B34 no binding seen
B35 no binding seen
B36 no binding seen
B37 no binding seen

7 neighbouring records already listed, for reference:
Apparent Kd, inactive:
B30 no binding seen
B31 no binding seen
B32 no binding seen
B33 no binding seen
B34 no binding seen
B35 no binding seen
B36 no binding seen
